Experimental data from article PMC4300402.

Protein sequences, listed by entry. Tags and fused reporters are not part of them.
UniProt P60953: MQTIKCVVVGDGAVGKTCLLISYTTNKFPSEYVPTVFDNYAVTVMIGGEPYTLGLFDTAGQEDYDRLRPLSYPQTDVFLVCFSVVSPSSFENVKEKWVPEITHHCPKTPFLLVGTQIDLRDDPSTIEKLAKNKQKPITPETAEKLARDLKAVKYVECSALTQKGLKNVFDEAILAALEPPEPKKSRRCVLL

Legend:
GST–PICK1 ΔCT = GST–PICK1 ΔCT (UniProt Q9EP80); experiment: pull-down; GST–PICK1 wild type or truncation mutants incubated with purified his6-tagged flagCdc42 or mycRac1; western blotting with anti-flag or anti-myc; both purified
GST–PICK1 ΔNT = GST–PICK1 ΔNT (UniProt Q9EP80); experiment: as above

binding (GST–PICK1 ΔCT): binds
binding (GST–PICK1 ΔNT): binds
Substance: his6-tagged flagCdc42 (from UniProt P60953 1-191)

Results are given in words; binding and its absence hold for the method and conditions named. Binding can be weak; no strength is given.
